Test results reported in paper PMC9289542.
These are yes or no findings as the source states them, for the method shown. Binding seen in cells or lysates may run through a third protein. Some results given as binding are weak or reduced against the parent protein; the word gives no strength.

Chains of the proteins cited; added tags and fusions are not shown. Residues count along the entry.
UniProt O95169, residues 29-186: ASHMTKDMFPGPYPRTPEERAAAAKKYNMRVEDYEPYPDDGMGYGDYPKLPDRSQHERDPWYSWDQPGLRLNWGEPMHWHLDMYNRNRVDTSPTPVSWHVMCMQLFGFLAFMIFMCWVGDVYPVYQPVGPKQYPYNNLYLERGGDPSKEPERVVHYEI

T1: protein disulfide isomerase-associated 2 (human (endogenous in HT-29)) (UniProt Q13087)
T1 sequence: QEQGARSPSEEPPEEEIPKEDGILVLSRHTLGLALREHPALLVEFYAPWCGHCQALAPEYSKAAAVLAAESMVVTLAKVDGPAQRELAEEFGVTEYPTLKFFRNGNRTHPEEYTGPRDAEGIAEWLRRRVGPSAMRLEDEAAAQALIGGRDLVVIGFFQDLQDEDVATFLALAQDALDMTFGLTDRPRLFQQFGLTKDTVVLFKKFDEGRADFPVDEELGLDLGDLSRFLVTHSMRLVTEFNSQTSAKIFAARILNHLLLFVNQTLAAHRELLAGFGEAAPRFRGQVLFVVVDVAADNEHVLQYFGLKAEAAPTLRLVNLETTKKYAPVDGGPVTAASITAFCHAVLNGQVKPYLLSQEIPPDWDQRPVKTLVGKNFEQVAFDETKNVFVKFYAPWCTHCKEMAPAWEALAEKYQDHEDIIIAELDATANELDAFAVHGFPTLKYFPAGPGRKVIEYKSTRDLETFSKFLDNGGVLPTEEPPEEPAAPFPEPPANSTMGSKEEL


Target: T1, protein disulfide isomerase-associated 2 (human (endogenous in HT-29))
Assay: co-IP; HT-29 total cell lysate (600 ug protein) immunoprecipitated with anti-PDIA2 antibody or control rabbit IgG at 4 C overnight, protein A/G PLUS-agarose; blotted with the total OXPHOS rodent WB antibody cocktail

binding	Molecule
binds	CI-20kDa subunit NDUFB8 (from UniProt O95169 29-186)
binds	CII-30kDa SDHB (protein, UniProt P21912 29-280) AQTAAATAPRIKKFAIYRWDPDKAGDKPHMQTYEVDLNKCGPMVLDALIKIKNEVDSTLTFRRSCREGICGSCAMNINGGNTLACTRRIDTNLNKVSKIYPLPHMYVIKDLVPDLSNFYAQYKSIEPYLKKKDESQEGKQQYLQSIEEREKLDGLYECILCACCSTSCPSYWWNGDKYLGPAVLMQAYRWMIDSRDDFTEERLAKLQDPFSLYRCHTIMNCTRTCPKGLNPGKAIAEIKKMMATYKEKKASV
